At least one compound was matched to its structure with a doubt left.
Target: SARS-CoV-2 spike protein (Severe acute respiratory syndrome coronavirus 2, UniProt P0DTC2)
Format: binding
Design: key: Results labeled “−” represent decreased binding; Results labeled “0” represent substantially similar binding; Results labeled “1” represent the original sequence; Results labeled “+” represent about 105-200% binding; Results labeled “++” represent about 200-300% binding; Results labeled “+++” represent about 300-500% binding; Results labeled “++++” represent over about 500% binding

With `CC[C@H](C)[C@@H]1NC(=O)[C@H](CCC(N)=O)NC(=O)[C@H](CCC(=O)O)NC(=O)[C@H](CCCNC(=N)N)NC(=O)[C@@H]2CCCN2C(=O)[C@H](CCCNC(=N)N)NC(=O)[C@H](CCCNC(=N)N)NC(=O)[C@H](Cc2ccc(O)cc2)NC(=O)CSC[C@@H](C(=O)NCC(N)=O)NC(=O)[C@H](Cc2ccccc2)NC(=O)[C@H](C(C)C)NC(=O)[C@H](Cc2c[nH]c3ccccc23)NC(=O)[C@H](CC(C)C)NC(=O)[C@H](CO)NC(=O)CNC(=O)[C@H]([C@@H](C)CC)NC(=O)[C@H]([C@@H](C)CC)NC1=O` [Compound S1b3inL1] as the compound, how does the “binding standardized to SEQ ID NO: 1” value read?
The value was 1.

Source: patent publication US20260242415A1 (priority 2022, published 2026)
